Data taken from article PMC3082007, “The microRNA cluster miR-106b~25 regulates adult neural stem/progenitor cell proliferation and neuronal differentiation”.
Construct, isoform or probe ends are uncertain for at least one entry. At least one verdict rests on a figure or table, not on a statement of the authors.

Protein sequences, listed by entry. Tags and fused reporters are not part of them. Lines headed by an entry give the natural chain unless they say otherwise; changes in a name come on top.
UniProt O43524: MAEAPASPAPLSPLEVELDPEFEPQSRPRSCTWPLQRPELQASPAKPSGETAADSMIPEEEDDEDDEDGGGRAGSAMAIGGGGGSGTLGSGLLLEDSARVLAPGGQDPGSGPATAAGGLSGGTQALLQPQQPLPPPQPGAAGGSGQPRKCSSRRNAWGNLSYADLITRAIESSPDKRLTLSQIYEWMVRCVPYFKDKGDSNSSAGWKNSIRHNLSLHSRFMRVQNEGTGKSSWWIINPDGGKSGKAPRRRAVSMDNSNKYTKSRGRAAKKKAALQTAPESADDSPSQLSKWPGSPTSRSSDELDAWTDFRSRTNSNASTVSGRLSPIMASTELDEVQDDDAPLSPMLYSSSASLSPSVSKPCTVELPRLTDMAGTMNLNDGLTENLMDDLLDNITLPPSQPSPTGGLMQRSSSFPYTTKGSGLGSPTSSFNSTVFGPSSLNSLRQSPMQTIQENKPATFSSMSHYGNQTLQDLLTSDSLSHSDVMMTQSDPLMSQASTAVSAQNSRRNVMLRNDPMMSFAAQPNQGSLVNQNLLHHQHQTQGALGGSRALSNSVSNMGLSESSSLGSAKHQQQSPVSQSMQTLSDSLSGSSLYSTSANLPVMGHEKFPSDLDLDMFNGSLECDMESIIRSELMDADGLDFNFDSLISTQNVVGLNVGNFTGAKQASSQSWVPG

Target: FoxO3-GST (human) (UniProt O43524)
Experiment: EMSA
Settings: 3 nM probe, positive control; 200 mM KCl, 200 mM MgCl2, 2% NP-40, 10% glycerol, 5 mM DTT; recombinant protein; protein details: GST; label: 32P

Sequence: AAATAACACACACGTGTGCTGGTAAACAAGCGCGCCAGCC (double strand) [positive control FoxO site near the FoxO3 promoter]
- binding result: binds
